Results as given in PMC8329711.
No constants are given. Whether binding was seen depends on the method and setting.

Molecular target: TLDc domain of human NCOA7-AS (residues 54-219), after TEV cleavage (human)
Assay: SEC; Superdex 75 10/300 GL, buffer D (50 mM Tris-HCl pH 8, 100 mM NaCl, 5 mM beta-mercaptoethanol); protein loaded at 5 mg ml^-1; elution volume 13.4 ml; both purified

binding: no binding (tested: 5 mg ml^-1 loaded)
B1: TLDc domain of human NCOA7-AS (residues 54-219), after TEV cleavage (domain or fragment)
chain: GMRPHSALLENMHIEQLARRLPARVQGYPWRLAYSTLEHGTSLKTLYRKSASLDSPVLLVIKDMDNQIFGAYATHPFKFSDHYYGTGETFLYTFSPHFKVFKWSGENSYFINGDISSLELGGGGGRFGLWLDADLYHGRSNSCSTFNNDILSKKEDFIVQDLEVWAFD
